The text below walks through data of PubChem BioAssay AID493014 (National Center for Advancing Translational Sciences (NCATS), 2011).

A short description of the assay: qHTS Assay to Find Inhibitors of Chronic Active B-Cell Receptor Signaling. Particulars: ABC-DLBCL IkBa-CBG/CBR reporter, luminescence ratio (green luciferase fused to IkBa over red control in TMD8 lymphoma cells), 4 h. In outline: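 Cell line TMD8 (human ABC DLBCL), stably expressing tet-inducible CBG68-IkBa fusion and CBR; IMDM/0.5% FBS; cpd up to 46 uM; dox induction, 4 h, 37C/5% CO2; dual luminescence; green/red ratio; MG132 control.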
A general note: In qHTS, concentration-response curves come from the screen itself.

The mark [1] stands for this setting: measured here: CBR red luminescence, cell number.
Where [2] appears, read: measured here: IkBa-CBG green luminescence.

This is one part of the list. Further columns of the screen follow, without active or inactive calls. The list favours compounds with an active or inconclusive main result. The note in brackets gives the kind of curve behind each potency; many fits are weak.

One may read the AC50 as the concentration giving half of the maximal activity seen. For the compound `COc1ccc(N(C(=O)/C=C\C(=O)Nc2ccc(Cl)cc2)C(C(=O)NCc2ccco2)c2ccc(C)cc2)cc1` (centres undefined), the AC50 under setting [1] is 3.55 µM [falling, partial curve, poor fit].

Take `COc1cc(/C=N/NC(N)=O)ccc1OCC(=O)N1C(C)CCCC1C` (centres undefined): under setting [1], the AC50 is 12.6 µM [rising, single point]. Same read-out and setting: to `O=C(C(Cc1ccccc1)n1cccc1)N1CCN(c2ncccn2)CC1` (centres undefined) belongs 2.06 µM [falling, partial curve, poor fit]; to `COc1nc(Nc2cccc(C(F)(F)F)c2)nc(OC)n1`, 1.12 µM [rising, partial curve].

With `Cc1ccc(C(C(=O)NCc2ccco2)N(CCc2ccccc2)C(=O)Cn2nnc3ccccc32)o1` (centres undefined), under setting [1], the half-maximal activity concentration (AC50) is 25.1 µM [falling, single point]. On the same count and under the same terms, to `COC(=O)c1cccc(Oc2nc3c(c(=O)n(C)c(=O)n3C)n2C(C)C)c1` belongs 4.61 µM [rising, partial curve]; to `CN1CCN(C(=S)Nc2ccc(Cl)cc2)CC1`, 11.2 µM [rising, partial curve]. Same read-out and setting: to `O=C(NNC(=S)Nc1ccccc1)c1cccs1` belongs 1.84 µM [falling, full curve]. On the same count and under the same terms, to `Cc1ccc(C(=O)NCCc2ccccc2)cc1` belongs 7.94 µM [falling, partial curve]; to `Cc1ccccc1CNC(=O)c1ccccc1NS(C)(=O)=O`, 14.1 µM [rising, partial curve, poor fit]; to `COc1cc(Cl)c(C)cc1NC(=O)c1cc(S(=O)(=O)N(C)C)ccc1N1CCCC1`, 4.11 µM [rising, full curve, poor fit]. Regarding `COc1cccc(N2CC(O)=C(c3nc4ccccc4c(=O)[nH]3)C2=N)c1`, the AC50 reads like this: under setting [1], 35.5 µM [falling, single point]; under setting [2], 2.24 µM [falling, full curve].

`CCOc1ccc(-c2nnn(CC#N)n2)cc1OC`: the AC50 under setting [1] is 29.1 µM [rising, single point] and the AC50 under setting [2] was 29.1 µM [falling, single point]. On to `COCc1c(C(=O)Nc2ccc3nc(N4CCOCC4)sc3c2)oc2ccccc12`, for which the AC50 under setting [1] is 14.6 µM [falling, partial curve, poor fit]. Same read-out and setting: to `CC(=O)Nc1sc2c(c1C#N)CCN(Cc1ccccc1)C2` belongs 35.5 µM [falling, single point]. Same read-out and setting: to `COc1ccccc1/C=C/C(=O)c1ccc(NC(C)=O)cc1` belongs 10.3 µM [falling, partial curve, poor fit]; to `O=[N+]([O-])c1cc(S(=O)(=O)N2CCCCCC2)ccc1F`, 29.1 µM [falling, single point]; to `Cc1nc(C2COc3ccccc3O2)sc1C(=O)O` (centres undefined), 15.8 µM [falling, single point]. On the same count and under the same terms, the value for `CCC(=O)Nc1ccc(C(=O)COC(=O)C(CCSC)NC(=O)COc2ccccc2)cc1` (centres undefined) was 11.6 µM [rising, partial curve, poor fit]. Turning to `COc1cccc(CNc2ccc3c(c2)CCC3)c1`, the AC50 under setting [1] was 18.4 µM [rising, partial curve, poor fit]. Still for that read-out and setting: to `COc1ccc(C(=O)c2sc(Nc3ccccc3F)nc2N)cc1` belongs 14.1 µM [falling, partial curve]. In the case of `O=C(Nc1ccccc1N1CCCCC1)c1ccccc1F`, the AC50 under setting [1] is 22.4 µM [rising, single point]. On the same count and under the same terms, the value for `CN(CC(=O)Nc1ccc([N+](=O)[O-])cc1Br)Cc1c(F)cccc1Cl` was 10 µM [rising, partial curve, poor fit]; that for `O=C(Cn1c(CCCO)nc2ccccc21)Nc1ccccc1-c1ccccc1` was 20 µM [rising, partial curve, poor fit]. The same measure, in the same setting: to `C=CCNC(=O)NC(=O)COC(=O)CNS(=O)(=O)c1ccc(F)c(F)c1F` belongs 35.5 µM [falling, single point]. The same measure, in the same setting: the value for `O=C(NCC1(c2ccccc2)CCCC1)c1ccccc1` was 14.6 µM [rising, partial curve, poor fit]; that for `CC(C)CCNC(=O)CCc1nnc2ccc(N3CCC(C)CC3)nn12` was 0.631 µM [rising, full curve, poor fit].

Turning to `CCc1ccc(NC(=O)CSc2nc(=O)n3cc(C)ccc3n2)cc1`, the AC50 under setting [1] was 0.731 µM [rising, full curve, poor fit].

As for `COc1ccc(C2=Nn3c(nnc3-c3ccccc3Cl)SC2)cc1OC1CCCC1`, the AC50 is, setting by setting: under setting [1], 20.6 µM [falling, partial curve]; under setting [2], 4.61 µM [falling, partial curve, poor fit]. With `O=C(Nc1ccc(Cl)c(Cl)c1)c1ccc(Cl)c(Cl)c1`, the AC50 under setting [1] is 35.5 µM [rising, single point]. The same measure, in the same setting: to `COC(=O)C1=C(C(=O)OC)C(c2ccccc2O)c2sc(=O)[nH]c2S1` (centres undefined) belongs 25.9 µM [falling, single point]. On the same count and under the same terms, to `CC1(C)CC(=O)C=C(NNC(=O)c2ccccc2)C1` belongs 29.1 µM [falling, single point]; to `CN1CCN(c2ccc(NC(=O)CSc3ccccc3)cc2F)CC1`, 29.1 µM [falling, single point]. Still for that read-out and setting: the value for `COc1ccc(C(C)=O)cc1COc1ccc(F)cc1` was 0.708 µM [rising, partial curve, poor fit]; that for `Cc1ccccc1-c1n[nH]c(=S)n1/N=C/C=C/c1ccco1` was 3.98 µM [falling, full curve, poor fit]. With `CC(C)CCOc1ccc(C2=NNC(=O)CC2)cc1`, the AC50 under setting [1] was 6.51 µM [rising, partial curve]. In the case of `Cc1nc2ccccn2c1-c1csc(Nc2ccc(C(=O)O)cc2)n1`, under setting [1], the AC50 is 7.08 µM [falling, partial curve, poor fit].

Take `COc1ccc(/C=C/c2c([N+](=O)[O-])c(=O)n(C)c(=O)n2C)cc1`: under setting [1], the AC50 is 10 µM [falling, partial curve, poor fit]. On the same count and under the same terms, to `Oc1cccc(/C=N/Nc2cc(N3CCOCC3)nc(N3CCOCC3)n2)c1` belongs 16.4 µM [falling, single point]; to `O=C(NCc1ccco1)c1cc2ccccc2c(=O)o1`, 14.1 µM [falling, single point]. The same measure, in the same setting: to `O=C(CSc1ncccc1-c1nc2ccccc2[nH]1)NC1CC1` belongs 2.24 µM [falling, partial curve]; to `CCn1c(SCC(=O)c2cc(C)n(-c3ccc(C(=O)OC)cc3)c2C)nnc1-c1cccnc1`, 8.2 µM [rising, single point]; to `NC(=O)c1cccc(-c2cc(Nc3ccc(OC(F)(F)F)cc3)ncn2)c1`, 0.891 µM [rising, full curve, poor fit]. Consider `Cc1noc(C)c1COC(=O)c1cnc(Cl)c(Cl)c1`, for which the AC50 under setting [2] was 35.5 µM [falling, single point]. As for `CCCCCCSC1=C(C#N)C(=O)NC2(CCCCC2)S1`, the AC50 under setting [1] is 20.6 µM [rising, single point]. On the same count and under the same terms, the value for `CCN(CC)S(=O)(=O)c1ccc2c(c1)nc(SCc1nc3ccsc3c(=O)[nH]1)n2CC` was 35.5 µM [falling, single point]. For `CCn1cc(C(=O)N2CCN(c3cccc(C)c3C)CC2)c(=O)c2ccc(C)nc21`, the AC50 under setting [1] is 3.98 µM [rising, single point]. On the same count and under the same terms, the value for `COc1ccc(C(=O)O/N=C(\N)c2ccncc2)cc1OC` was 14.6 µM [falling, partial curve, poor fit]. Consider `COc1ccccc1NC(=O)C(=O)NCCC1CCCCN1S(=O)(=O)c1ccc(F)cc1` (centres undefined), for which the AC50 under setting [1] is 2.31 µM [falling, full curve] and the AC50 under setting [2] is 3.26 µM [rising, full curve, poor fit].

Regarding `Cc1cccc(NC(=O)C(=O)NNC(=O)c2ccc(C(C)(C)C)cc2)c1`, the AC50 under setting [1] is 2.24 µM [falling, partial curve, poor fit]. Same read-out and setting: to `CCCCCNc1c(C(=O)OCC)c(=O)[nH]c2ccccc12` belongs 11.2 µM [rising, partial curve, poor fit]. Regarding `COC(=O)c1ccc(/C=C/C(=O)OCC(=O)Nc2sccc2C(N)=O)cc1`, the half-maximal activity concentration (AC50) is 18.4 µM [falling, partial curve] under setting [1] and 16.4 µM [falling, single point] under setting [2]. For `CC(Sc1nnc(C2CC2)n1C)C(=O)Nc1ccc(N2CCOCC2)cc1` (centres undefined), the AC50 under setting [2] is 6.51 µM [rising, partial curve, poor fit]. For `Cn1c(=O)c(C=Nc2ccccc2)c(O)c2ccccc21`, the AC50 under setting [1] was 35.5 µM [falling, single point]. In the case of `CCOC(=O)n1cc(C(=O)c2ccccc2O)cn1`, the AC50 under setting [1] is 4.47 µM [falling, full curve, poor fit]. On the same count and under the same terms, the value for `CC(=O)c1sc(-c2ccc(Cl)cc2)cc1N` was 0.708 µM [rising, full curve, poor fit]; that for `CC(=O)C1=C(c2ccc(Br)cc2)C(=O)c2ccccc2C1=O` was 5.17 µM [falling, full curve, poor fit]. On to `CN(Cc1ccccc1)S(=O)(=O)c1ccc(NS(=O)(=O)Cc2ccccc2)cc1`, for which the AC50 by setting is: under setting [1], 29.1 µM [falling, single point]; under setting [2], 18.4 µM [rising, partial curve, poor fit].

On to `COc1cccc(N2CC(NC(=O)Cc3cccs3)CC2=O)c1` (centres undefined), for which, under setting [1], the AC50 is 1.12 µM [rising, full curve].

Regarding `CCC1C/C(=C/c2ccco2)C(=O)/C(=C/c2ccco2)C1` (centres undefined), under setting [1], the half-maximal activity concentration (AC50) was 14.6 µM [falling, partial curve].

On to `CCOc1ccc(-c2cc(CCCC(=O)NCc3ccco3)no2)cc1`, for which the AC50 under setting [1] is 5.17 µM [falling, partial curve]. Take `c1ccc(CNc2ncnc3scc(-c4cccs4)c23)nc1`: the AC50 under setting [1] is 11.2 µM [falling, partial curve, poor fit]. Consider `O=C(c1ccc(F)cc1)N1CCN2C(=O)c3ccccc3C12c1ccc(Cl)cc1` (centres undefined), for which the AC50 under setting [1] was 14.1 µM [falling, single point].
